Measured values published in the supplement of paper PMC10849652.
Some of the results follow.

By UniProt entry, the sequences of proteins in these tests, tags left out. Where a name states a change or a piece, a line headed by the entry shows the natural chain unless it says otherwise.
UniProt Q9P287, whole entry, looked up: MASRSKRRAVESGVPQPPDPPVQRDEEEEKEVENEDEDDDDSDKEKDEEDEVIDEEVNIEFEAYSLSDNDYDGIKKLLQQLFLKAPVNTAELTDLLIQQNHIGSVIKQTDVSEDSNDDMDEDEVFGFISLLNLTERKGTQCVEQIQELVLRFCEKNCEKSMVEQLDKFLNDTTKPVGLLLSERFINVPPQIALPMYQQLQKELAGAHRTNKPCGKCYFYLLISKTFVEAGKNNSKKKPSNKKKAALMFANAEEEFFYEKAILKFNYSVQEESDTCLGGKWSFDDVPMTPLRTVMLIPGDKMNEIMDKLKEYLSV
UniProt Q8TDN6: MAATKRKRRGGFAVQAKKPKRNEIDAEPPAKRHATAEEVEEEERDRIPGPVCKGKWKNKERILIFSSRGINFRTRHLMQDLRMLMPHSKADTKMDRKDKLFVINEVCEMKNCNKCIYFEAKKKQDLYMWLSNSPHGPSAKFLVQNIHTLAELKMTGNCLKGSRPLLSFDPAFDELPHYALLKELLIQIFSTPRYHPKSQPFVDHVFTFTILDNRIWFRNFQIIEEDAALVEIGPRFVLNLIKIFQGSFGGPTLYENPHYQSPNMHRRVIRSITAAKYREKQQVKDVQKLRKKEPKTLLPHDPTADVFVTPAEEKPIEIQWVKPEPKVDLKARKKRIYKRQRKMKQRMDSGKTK
UniProt Q13535: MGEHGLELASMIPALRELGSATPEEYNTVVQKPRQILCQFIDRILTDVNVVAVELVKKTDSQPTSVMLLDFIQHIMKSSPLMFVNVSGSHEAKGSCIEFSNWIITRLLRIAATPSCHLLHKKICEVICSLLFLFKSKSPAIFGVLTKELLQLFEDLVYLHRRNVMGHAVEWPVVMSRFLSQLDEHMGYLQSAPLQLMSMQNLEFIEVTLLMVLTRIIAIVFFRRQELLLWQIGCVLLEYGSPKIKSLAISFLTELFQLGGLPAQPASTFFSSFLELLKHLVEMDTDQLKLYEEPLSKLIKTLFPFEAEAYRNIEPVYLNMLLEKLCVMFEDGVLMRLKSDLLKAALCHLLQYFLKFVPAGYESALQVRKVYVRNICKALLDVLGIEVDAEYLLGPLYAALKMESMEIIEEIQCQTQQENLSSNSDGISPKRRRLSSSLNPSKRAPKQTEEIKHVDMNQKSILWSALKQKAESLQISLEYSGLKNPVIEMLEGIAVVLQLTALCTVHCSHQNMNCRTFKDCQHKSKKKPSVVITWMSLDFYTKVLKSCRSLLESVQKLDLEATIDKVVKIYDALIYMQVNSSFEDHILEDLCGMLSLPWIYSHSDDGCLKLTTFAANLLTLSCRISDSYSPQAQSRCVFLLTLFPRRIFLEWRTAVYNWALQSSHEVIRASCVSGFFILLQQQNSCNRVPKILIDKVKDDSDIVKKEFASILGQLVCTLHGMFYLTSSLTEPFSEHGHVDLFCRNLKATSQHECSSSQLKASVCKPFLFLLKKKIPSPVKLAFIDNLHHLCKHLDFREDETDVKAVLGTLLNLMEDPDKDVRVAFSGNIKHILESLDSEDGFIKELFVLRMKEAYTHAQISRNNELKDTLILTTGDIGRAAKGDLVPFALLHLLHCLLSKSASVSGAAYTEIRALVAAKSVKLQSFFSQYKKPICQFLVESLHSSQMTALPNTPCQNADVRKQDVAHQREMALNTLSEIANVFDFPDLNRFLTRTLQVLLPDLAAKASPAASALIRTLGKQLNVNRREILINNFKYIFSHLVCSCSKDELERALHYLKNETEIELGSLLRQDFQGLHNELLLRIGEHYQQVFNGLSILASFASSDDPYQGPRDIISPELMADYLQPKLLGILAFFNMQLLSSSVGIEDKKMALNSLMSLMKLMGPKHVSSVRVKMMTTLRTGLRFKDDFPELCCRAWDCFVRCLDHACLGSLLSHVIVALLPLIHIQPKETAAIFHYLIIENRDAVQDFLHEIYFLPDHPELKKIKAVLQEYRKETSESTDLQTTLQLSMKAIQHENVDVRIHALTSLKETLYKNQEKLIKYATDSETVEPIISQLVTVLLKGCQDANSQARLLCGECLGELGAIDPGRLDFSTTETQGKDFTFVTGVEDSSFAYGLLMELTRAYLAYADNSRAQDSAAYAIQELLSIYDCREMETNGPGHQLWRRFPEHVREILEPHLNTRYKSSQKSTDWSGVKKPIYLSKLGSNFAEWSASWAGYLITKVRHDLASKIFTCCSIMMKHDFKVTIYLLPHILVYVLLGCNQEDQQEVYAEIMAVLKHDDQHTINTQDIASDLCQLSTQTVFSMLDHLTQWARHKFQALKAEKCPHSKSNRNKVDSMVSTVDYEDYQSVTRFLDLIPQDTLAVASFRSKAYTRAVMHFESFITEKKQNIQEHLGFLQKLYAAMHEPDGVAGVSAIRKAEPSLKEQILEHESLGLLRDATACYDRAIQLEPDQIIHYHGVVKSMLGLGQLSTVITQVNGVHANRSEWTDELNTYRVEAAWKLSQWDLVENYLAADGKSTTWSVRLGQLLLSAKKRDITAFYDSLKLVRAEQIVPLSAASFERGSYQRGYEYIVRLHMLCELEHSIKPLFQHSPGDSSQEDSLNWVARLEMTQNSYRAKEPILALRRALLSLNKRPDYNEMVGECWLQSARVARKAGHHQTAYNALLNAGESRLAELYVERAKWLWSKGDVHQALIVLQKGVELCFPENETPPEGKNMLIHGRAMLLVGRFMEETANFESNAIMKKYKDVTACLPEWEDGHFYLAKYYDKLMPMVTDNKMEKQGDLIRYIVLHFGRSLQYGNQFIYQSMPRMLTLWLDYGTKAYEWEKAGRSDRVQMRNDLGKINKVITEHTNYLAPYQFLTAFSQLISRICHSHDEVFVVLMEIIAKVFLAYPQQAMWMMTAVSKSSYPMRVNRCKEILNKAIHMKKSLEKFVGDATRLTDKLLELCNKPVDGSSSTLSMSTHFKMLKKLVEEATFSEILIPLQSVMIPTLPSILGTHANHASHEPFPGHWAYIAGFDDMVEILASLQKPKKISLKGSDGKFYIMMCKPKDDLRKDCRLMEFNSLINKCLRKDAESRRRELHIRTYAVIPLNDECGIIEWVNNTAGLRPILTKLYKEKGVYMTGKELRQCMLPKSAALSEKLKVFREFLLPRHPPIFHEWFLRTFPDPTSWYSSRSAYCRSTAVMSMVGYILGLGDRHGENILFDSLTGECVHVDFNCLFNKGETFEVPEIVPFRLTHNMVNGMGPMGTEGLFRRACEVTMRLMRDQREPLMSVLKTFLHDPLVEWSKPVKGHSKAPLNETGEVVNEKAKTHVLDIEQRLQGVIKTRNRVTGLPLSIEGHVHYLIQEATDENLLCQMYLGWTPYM
UniProt Q15059, whole entry, looked up: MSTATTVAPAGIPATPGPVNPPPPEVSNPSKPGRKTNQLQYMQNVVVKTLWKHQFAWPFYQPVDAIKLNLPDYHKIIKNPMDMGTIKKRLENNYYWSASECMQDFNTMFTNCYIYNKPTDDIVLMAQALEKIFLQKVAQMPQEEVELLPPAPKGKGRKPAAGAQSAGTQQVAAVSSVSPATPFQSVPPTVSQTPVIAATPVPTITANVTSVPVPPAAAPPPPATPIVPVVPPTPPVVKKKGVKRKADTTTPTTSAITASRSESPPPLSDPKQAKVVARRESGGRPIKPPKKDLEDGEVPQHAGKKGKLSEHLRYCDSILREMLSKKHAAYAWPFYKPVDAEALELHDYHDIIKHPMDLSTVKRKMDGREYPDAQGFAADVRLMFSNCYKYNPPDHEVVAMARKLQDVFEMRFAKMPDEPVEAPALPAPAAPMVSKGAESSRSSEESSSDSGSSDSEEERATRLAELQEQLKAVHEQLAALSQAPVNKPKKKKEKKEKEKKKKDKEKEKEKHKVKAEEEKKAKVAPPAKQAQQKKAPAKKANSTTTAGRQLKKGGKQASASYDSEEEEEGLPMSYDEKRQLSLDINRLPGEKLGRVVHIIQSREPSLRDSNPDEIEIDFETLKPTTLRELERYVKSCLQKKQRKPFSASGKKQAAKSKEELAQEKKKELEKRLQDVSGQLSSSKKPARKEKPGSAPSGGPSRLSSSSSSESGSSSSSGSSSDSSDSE
UniProt Q86UU0: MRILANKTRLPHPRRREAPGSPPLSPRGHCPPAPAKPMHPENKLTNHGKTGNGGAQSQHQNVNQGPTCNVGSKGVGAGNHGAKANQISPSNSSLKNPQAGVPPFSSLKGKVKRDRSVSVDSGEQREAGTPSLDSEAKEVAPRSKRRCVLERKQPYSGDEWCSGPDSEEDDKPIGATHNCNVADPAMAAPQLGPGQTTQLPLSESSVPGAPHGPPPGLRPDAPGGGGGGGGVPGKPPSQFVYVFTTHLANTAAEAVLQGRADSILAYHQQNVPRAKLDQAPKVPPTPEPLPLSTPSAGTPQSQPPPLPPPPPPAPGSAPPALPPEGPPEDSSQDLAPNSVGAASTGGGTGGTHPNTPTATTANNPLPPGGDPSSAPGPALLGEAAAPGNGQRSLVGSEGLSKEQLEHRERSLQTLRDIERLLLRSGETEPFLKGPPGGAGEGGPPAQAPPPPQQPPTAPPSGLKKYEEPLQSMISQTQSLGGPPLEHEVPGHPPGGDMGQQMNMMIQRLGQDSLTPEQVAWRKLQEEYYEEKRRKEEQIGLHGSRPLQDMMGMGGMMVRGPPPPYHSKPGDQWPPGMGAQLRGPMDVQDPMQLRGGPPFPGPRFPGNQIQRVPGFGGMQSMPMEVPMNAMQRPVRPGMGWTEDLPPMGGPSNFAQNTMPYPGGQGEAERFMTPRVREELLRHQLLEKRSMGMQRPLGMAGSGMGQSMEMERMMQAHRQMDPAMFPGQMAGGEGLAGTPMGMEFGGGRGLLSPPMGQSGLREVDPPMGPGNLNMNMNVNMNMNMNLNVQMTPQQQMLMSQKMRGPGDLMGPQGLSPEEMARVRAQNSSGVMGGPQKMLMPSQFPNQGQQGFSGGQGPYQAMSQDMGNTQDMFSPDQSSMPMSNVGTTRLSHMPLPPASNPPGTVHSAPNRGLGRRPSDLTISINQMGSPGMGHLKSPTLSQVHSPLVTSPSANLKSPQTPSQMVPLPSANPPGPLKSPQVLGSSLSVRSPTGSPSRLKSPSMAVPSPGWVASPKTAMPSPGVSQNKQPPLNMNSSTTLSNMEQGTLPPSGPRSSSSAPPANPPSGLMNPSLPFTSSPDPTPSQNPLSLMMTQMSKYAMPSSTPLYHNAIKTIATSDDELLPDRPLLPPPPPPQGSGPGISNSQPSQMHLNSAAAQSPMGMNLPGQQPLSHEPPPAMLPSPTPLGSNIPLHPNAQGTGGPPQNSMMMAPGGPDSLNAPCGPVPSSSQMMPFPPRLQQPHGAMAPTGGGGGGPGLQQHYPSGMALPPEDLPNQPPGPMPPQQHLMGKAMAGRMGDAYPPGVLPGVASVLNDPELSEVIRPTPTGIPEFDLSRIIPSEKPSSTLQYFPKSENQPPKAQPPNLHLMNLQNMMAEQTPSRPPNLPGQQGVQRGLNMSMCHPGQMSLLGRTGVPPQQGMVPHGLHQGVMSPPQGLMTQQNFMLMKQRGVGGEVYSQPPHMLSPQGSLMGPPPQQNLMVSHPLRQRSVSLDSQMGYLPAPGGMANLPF
UniProt P61769, whole entry, looked up: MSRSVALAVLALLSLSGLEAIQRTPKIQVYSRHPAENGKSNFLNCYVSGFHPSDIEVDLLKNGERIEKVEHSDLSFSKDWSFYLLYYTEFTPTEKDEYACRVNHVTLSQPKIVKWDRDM
UniProt P30043: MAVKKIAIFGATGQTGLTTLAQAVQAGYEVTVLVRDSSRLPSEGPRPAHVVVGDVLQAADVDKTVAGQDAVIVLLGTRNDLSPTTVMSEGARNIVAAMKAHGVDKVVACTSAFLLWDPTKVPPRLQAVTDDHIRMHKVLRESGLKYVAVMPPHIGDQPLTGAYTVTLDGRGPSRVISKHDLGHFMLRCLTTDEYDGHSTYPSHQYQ
UniProt Q6UW56: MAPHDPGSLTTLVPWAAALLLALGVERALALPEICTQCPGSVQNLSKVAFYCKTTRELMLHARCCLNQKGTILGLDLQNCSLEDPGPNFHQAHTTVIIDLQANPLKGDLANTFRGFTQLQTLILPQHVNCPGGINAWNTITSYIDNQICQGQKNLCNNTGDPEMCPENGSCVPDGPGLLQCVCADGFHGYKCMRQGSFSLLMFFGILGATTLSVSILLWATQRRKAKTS
UniProt Q8NCR0: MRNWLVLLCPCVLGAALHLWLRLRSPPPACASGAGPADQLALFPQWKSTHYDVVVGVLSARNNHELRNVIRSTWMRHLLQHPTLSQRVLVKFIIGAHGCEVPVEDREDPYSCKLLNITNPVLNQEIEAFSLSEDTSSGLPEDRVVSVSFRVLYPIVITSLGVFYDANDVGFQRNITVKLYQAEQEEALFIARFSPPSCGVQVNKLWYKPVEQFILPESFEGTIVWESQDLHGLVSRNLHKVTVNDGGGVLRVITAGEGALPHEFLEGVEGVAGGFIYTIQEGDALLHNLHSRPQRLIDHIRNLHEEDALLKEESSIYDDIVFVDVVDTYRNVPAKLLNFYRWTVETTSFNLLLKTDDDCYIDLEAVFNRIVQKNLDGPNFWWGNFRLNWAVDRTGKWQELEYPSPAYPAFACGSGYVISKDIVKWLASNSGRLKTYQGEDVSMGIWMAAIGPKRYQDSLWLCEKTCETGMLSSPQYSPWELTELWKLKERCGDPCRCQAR

Legend:
Assay in all cases: log2 fold change, soluble protein after heating vs DMSO (PISA); higher = thermal stabilisation; K562 cells, 10 uM, 30 min; active = over 0.2 and 3.5 SD of the protein, either way, in both replicates (recomputed)
[1] = compound: CS(=O)(=O)c1ccc(-c2cnc(N)c(C(=O)Nc3ccccc3)n2)cc1
In short: (§1)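 Quantification of soluble protein used TMTpro 16plex LC-MS/MS, with channel sums equalised. Samples were the supernatant after 21,000xg for 90 min of pooled aliquots from K562 cells (2×10^6 cells/mL) treated with 10 μM compound for 30 min, heated for 3 min over 48°C-58°C, and extracted in PBS with 0.5% NP-40 at 4°C. Values, from duplicates, describe thermal stability against control samples on a log2 fold-change scale.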

[2] = compound: C[C@@H]1COCCN1C2=NC(=NC(=C2)C3(CC3)S(=O)(=O)C)C4=C5C=CNC5=CC=C4
In short: as §1

[3] = compound: C[C@@H](Oc1cc(-c2cnn(C3CCNCC3)c2)cnc1N)c1c(Cl)ccc(F)c1Cl [crizotinib]
In short: as §1

[4] = compound: C[C@H](C1=CC=C(C=C1)C(=O)NC2=C3C=CNC3=NC=C2)N
In short: as §1

[5] = compound: Cc1cc(Nc2cc(CN3CCOCC3)c3nc(C)c(Cc4ccc(Cl)cc4F)n3n2)n[nH]1 [gandotinib]
In short: as §1

[6] = compound: Cc1cc(SCc2sc(-c3ccc(C(F)(F)F)cc3)nc2C)ccc1OCC(=O)O
In short: as §1

[7] = compound: Cc1ccc(-n2nc(C(C)(C)C)cc2NC(=O)Nc2ccc(OCCN3CCOCC3)c3ccccc23)cc1 [doramapimod]
In short: as §1

[8] = compound: Cc1ccc(C(=O)N(CCCN)[C@@H](c2nc3cc(Cl)ccc3c(=O)n2Cc2ccccc2)C(C)C)cc1 [ispinesib]
In short: as §1

[9] = compound: C[C@H](Nc1ncnc2nc[nH]c12)c1cc2cccc(Cl)c2c(=O)n1-c1ccccc1 [duvelisib]
In short: as §1

[10] = compound: Cc1cc(Nc2cc(N3CCN(C)CC3)nc(Sc3ccc(NC(=O)C4CC4)cc3)n2)n[nH]1 [tozasertib]
In short: as §1

Target	log2 fold change [1]	log2 fold change [2]	log2 fold change [3]	log2 fold change [4]	log2 fold change [5]	log2 fold change [6]	log2 fold change [7]	log2 fold change [8]	log2 fold change [9]	log2 fold change [10]
BORA (UniProt Q6PGQ7)	inactive: 0.149	inactive: 0.073	–	–	–	–	–	–	–	–
BCCIP isoform 2 (UniProt Q9P287)	inactive: -0.006	inactive: 0	inactive: -0.012	inactive: 0.062	inactive: -0.047	inactive: 0.011	inactive: -0.008	inactive: 0.059	–	–
BAIAP2 (UniProt Q9UQB8)	inactive: 0.023	inactive: 0	inactive: -0.115	inactive: -0.039	inactive: -0.053	inactive: 0.08	inactive: 0.086	inactive: -0.057	–	–
BRIX1 (UniProt Q8TDN6)	inactive: -0.027	inactive: -0.292	inactive: -0.097	inactive: 0.318	inactive: 0.056	inactive: 0.093	inactive: 0.288	inactive: 0.166	–	–
BRAF (UniProt P15056)	inactive: 0.006	inactive: 0.034	inactive: 0.023	inactive: -0.072	inactive: -0.013	inactive: -0.014	–	inactive: -0.024	–	–
BPTF (UniProt Q12830)	inactive: -0.24	inactive: -0.12	inactive: 0.122	–	–	inactive: 0.178	inactive: 0.274	–	inactive: -0.004	–
BPHL (UniProt Q86WA6)	inactive: 0.02	inactive: 0.008	inactive: -0.036	inactive: -0.059	inactive: 0.05	inactive: -0.01	inactive: 0.004	inactive: 0.01	–	–
BRCA1 isoform 7 (UniProt P38398)	inactive: 0.158	–	inactive: 0.02	–	–	–	inactive: -0.03	inactive: -0.154	–	–
ATXN7L3 isoform 2 (UniProt Q14CW9)	inactive: 0.001	–	inactive: -0.043	–	–	–	inactive: 0.169	inactive: -0.007	–	–
ATR (UniProt Q13535)	inactive: 0.063	–	inactive: -0.021	inactive: 0.022	inactive: -0.09	inactive: 0.026	inactive: -0.123	inactive: 0.004	–	–
BRD2 isoform 2 (UniProt P25440)	inactive: 0.618	–	inactive: 0.006	inactive: -0.065	inactive: -0.089	inactive: -0.083	inactive: 0.064	–	–	–
BRD3 (UniProt Q15059)	inactive: 0.117	–	inactive: 0.109	inactive: -0.02	inactive: -0.081	inactive: -0.037	inactive: -0.083	inactive: -0.03	–	–
AUP1 (UniProt Q9Y679)	inactive: -0.032	inactive: 0.071	inactive: -0.123	inactive: -0.015	inactive: -0.181	inactive: 0.06	inactive: -0.033	active: -0.41	–	–
BET1L (UniProt Q9NYM9)	inactive: -0.066	inactive: -0.043	–	inactive: -0.316	–	inactive: 0.075	–	inactive: 0.066	inactive: 0.047	inactive: 0.071
BCL2L11 (UniProt O43521)	inactive: 0.017	inactive: 0.157	–	inactive: -0.045	inactive: 0.191	inactive: 0.013	–	inactive: 0.1	inactive: -0.008	inactive: -0.134
BCL9L (UniProt Q86UU0)	inactive: 0.029	inactive: 0.018	inactive: 0.085	inactive: -0.002	inactive: 0.097	inactive: -0.112	inactive: 0.006	inactive: 0.025	–	–

Exported with bars between the fields: part of the list above.
Target | log2 fold change [1] | log2 fold change [2] | log2 fold change [3] | log2 fold change [4] | log2 fold change [5] | log2 fold change [6] | log2 fold change [7] | log2 fold change [8] | log2 fold change [9] | log2 fold change [10]
BRCA1 isoform 7 (UniProt P38398) | inactive: 0.158 | – | inactive: 0.02 | – | – | – | inactive: -0.03 | inactive: -0.154 | – | –
AUP1 (UniProt Q9Y679) | inactive: -0.032 | inactive: 0.071 | inactive: -0.123 | inactive: -0.015 | inactive: -0.181 | inactive: 0.06 | inactive: -0.033 | active: -0.41 | – | –

Carrying on:

Target	log2 fold change [1]	log2 fold change [2]	log2 fold change [3]	log2 fold change [4]	log2 fold change [5]	log2 fold change [6]	log2 fold change [7]	log2 fold change [8]	log2 fold change [9]	log2 fold change [10]
BCCIP (UniProt Q9P287)	inactive: -0.015	inactive: -0.044	inactive: -0.02	inactive: 0.074	inactive: -0.093	inactive: 0.037	inactive: 0.01	inactive: 0.001	–	–
B2M (UniProt P61769)	inactive: -0.019	inactive: 0.095	–	inactive: 0	inactive: 0.072	inactive: 0.063	–	inactive: 0.125	inactive: 0.052	inactive: 0.183
BLVRB (UniProt P30043)	inactive: 0.04	inactive: 0.036	inactive: -0.006	inactive: -0.081	inactive: -0.085	inactive: 0.002	inactive: -0.027	inactive: -0.012	–	–
BMP2K (UniProt Q9NSY1)	inactive: 0.136	inactive: 0	active: 0.411	active: 0.402	inactive: 0.319	inactive: -0.051	inactive: 0.024	inactive: -0.017	–	–
B4GALNT1 (UniProt Q00973)	inactive: 0.198	inactive: -0.003	inactive: 0.014	inactive: -0.019	inactive: -0.077	inactive: 0.12	inactive: 0.065	inactive: -0.077	–	–
ATRAID isoform 3 (UniProt Q6UW56)	inactive: 0.022	–	inactive: 0.059	inactive: -0.026	inactive: -0.062	inactive: -0.02	inactive: 0.026	inactive: -0.016	inactive: 0.009	inactive: 0.048
B3GALNT2 (UniProt Q8NCR0)	inactive: 0.144	inactive: 0.048	inactive: -0.022	–	inactive: 0.071	–	inactive: -0.064	inactive: -0.076	–	inactive: -0.377
BLOC1S3 (UniProt Q6QNY0)	inactive: -0.001	inactive: 0.116	inactive: 0.014	inactive: 0.065	inactive: -0.132	inactive: -0.052	inactive: -0.038	inactive: 0.012	–	–
BRD8 isoform 2 (UniProt Q9H0E9)	inactive: -0.134	inactive: -0.11	inactive: 0.044	inactive: 0.042	inactive: 0.113	inactive: -0.012	inactive: 0.04	inactive: 0.061	–	–
BAP1 (UniProt Q92560)	inactive: 0.07	inactive: 0	inactive: -0.078	inactive: 0.126	inactive: 0.076	inactive: 0.085	inactive: 0.112	inactive: -0.043	–	–
AURKAIP1 (UniProt Q9NWT8)	inactive: 0.09	inactive: -0.156	–	inactive: 0.456	–	inactive: -0.015	–	inactive: -0.262	inactive: -0.176	inactive: 0.041
BRAP (UniProt Q7Z569)	inactive: 0.027	inactive: 0.008	inactive: -0.205	inactive: -0.01	inactive: -0.024	inactive: 0.093	inactive: 0.081	inactive: -0.089	–	–
BPIFA1 (UniProt Q9NP55)	inactive: 0.189	–	inactive: 0.184	–	–	–	inactive: -0.357	inactive: 1	–	–
BRIP1 (UniProt Q9BX63)	inactive: 0.13	inactive: 0.151	inactive: 0.019	inactive: -0.005	inactive: -0.035	inactive: 0.009	inactive: -0.088	inactive: 0.018	–	–
BLM (UniProt P54132)	inactive: 0.041	–	inactive: -0.1	inactive: -0.101	–	inactive: 0.074	inactive: 0.163	inactive: -0.054	inactive: -0.028	inactive: -0.035
